Laboratory results from publication PMC4907476.
Results are given in words; binding and its absence hold for the method and conditions named. In cells and extracts the contact can be indirect. Some entries that bind do so weakly or less than the wild type.

Sequences of proteins named here, by UniProt entry; tags and fusion partners are left off. A change or cut given only in a name is not applied to a line headed by its entry.
UniProt P47900: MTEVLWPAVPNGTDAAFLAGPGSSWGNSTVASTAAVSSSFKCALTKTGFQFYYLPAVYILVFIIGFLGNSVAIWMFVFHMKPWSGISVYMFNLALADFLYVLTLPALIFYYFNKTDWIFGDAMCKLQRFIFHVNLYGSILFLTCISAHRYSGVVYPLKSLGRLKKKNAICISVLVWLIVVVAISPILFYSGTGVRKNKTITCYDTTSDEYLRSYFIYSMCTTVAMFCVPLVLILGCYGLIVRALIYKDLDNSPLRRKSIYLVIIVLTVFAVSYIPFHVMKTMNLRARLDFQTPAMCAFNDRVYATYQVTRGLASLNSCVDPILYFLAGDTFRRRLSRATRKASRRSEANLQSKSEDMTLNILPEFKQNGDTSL
UniProt Q8WUM4: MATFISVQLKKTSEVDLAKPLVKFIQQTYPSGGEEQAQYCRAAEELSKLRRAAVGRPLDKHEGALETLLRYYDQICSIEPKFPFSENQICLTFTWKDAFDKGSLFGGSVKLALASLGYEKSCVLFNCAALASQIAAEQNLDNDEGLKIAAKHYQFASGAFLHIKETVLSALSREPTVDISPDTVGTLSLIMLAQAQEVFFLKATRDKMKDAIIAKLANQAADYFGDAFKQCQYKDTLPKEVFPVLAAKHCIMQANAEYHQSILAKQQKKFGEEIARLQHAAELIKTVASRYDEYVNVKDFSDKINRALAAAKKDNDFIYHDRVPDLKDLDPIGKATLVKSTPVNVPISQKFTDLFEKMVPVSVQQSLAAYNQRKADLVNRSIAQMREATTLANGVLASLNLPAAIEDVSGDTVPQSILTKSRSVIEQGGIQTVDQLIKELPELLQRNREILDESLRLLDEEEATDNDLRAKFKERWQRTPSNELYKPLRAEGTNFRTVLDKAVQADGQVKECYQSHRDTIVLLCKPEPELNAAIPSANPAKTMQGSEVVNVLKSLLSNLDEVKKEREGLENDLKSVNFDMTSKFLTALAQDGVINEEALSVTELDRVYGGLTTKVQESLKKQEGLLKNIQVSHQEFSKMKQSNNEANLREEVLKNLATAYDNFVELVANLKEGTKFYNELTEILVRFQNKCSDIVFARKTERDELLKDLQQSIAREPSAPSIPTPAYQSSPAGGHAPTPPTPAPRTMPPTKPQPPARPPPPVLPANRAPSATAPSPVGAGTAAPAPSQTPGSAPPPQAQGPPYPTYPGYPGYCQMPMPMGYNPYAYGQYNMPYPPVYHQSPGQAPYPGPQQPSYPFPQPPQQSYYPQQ

Columns and labels:
[1] = target: FLAG-P2Y1 Y155A mutant (human) (UniProt P47900); experiment: co-IP; HeLa cells transfected with FLAG-P2Y1 WT or Y155A, unstimulated or stimulated with 10 uM ADP for the indicated times (up to 120 min); lysis in NP-40 buffer (0.5% NP40, 20 mM Tris-HCl pH 7.4, 150 mM NaCl); anti-FLAG antibody and protein-A sepharose overnight at 4 C; immunoblot for endogenous ALIX
[2] = target: FLAG-P2Y1 wild type (full-length N-terminal FLAG-tagged P2Y1 purinergic receptor) (human) (UniProt P47900); experiment: as above

- binding [1]: binds weakly
- binding [2]: binds
Substance: ALIX (adaptor protein), endogenous (from UniProt Q8WUM4 1-868)
